This is an account of results in patent publication US6080791A, “Method of treating a viral condition by inhibiting membrane fusion” (priority 1992, dated 2000).

Molecules are shown by their SMILES.

The test system of one data set is hemoglobin. Put plainly: Hb control (quenching of OD570 of hemoglobin). Also noted: species or system human.
Conditions: not given
`Oc1ccc(Cl)c2ccccc12` [Compound 101, 4-chloro-1-naphthol]: the “loss of OD due to redox activity” value is “complete loss of OD due to redox activity”.

In the case of `COc1ccc(O)c2ccccc12` [Compound 107, 4-methoxy-1-naphthol], the “loss of OD due to redox activity” value was “complete loss of OD due to redox activity”.

Test system in the next data set: not listed separately
Put plainly: pH control.
Conditions: not given
For `O=C1C=CC(=O)c2c(O)cccc21` [Compound 119, 5-hydroxy-1,4-naphthoquinone], the “effect on the pH of the reactions” value was “none”.

The same data set, now with this note: 0.1 mM.
As to `O=C1C=CC(=O)c2cc3ccccc3cc21` [Compound 114, 1,4-anthraquinone], the “effect on the pH of the reactions” value was “none”.

`Oc1ccc2ccccc2c1O` [Compound 124, 1,2-dihydroxynaphthalene]: the “effect on the pH of the reactions” value was “none”.

The same data set, now with this note: 1 mM.
For the compound `CC1=CC(=O)CC(C)(C)C1=O` [Compound 84, 2,6,6-trimethyl-2-cyclohexene-1,4-dione], the “effect on the pH of the reactions” value is given as “none”.

As to `O=C(O)[C@@H]1[C@H](C(=O)O)[C@@H]2C=C[C@H]1C2` [Compound 89, cis-5-norbornene-endo-2,3-dicarboxylic acid], the “effect on the pH of the reactions” value is “none”.

With `O=C1C=CC(=O)c2ccccc21` [Compound 90, 1,4-naphthoquinone], the “effect on the pH of the reactions” value is “none”.

With `O=C(O)C1C=CCC2C(=O)C=CC(=O)C12` (stereo not drawn) [Compound 91, 5,8-dioxo-1,4,4A,5,8,8A-hexahydro-1-naphthalene carboxylic acid], the “effect on the pH of the reactions” value is “none”.

As for `Cc1c(O)ccc(O)c1C` [Compound 99, 2,3-dimethylhydroquinone], the “effect on the pH of the reactions” value is reported as “none”.

For `Cc1cc(O)c(C)cc1O` [Compound 116, 2,5-dimethylhydroquinone], the “effect on the pH of the reactions” value is on record as “none”.

Regarding `CC(C)(C)c1cc(O)ccc1O` [Compound 117, tert-butylhydroquinone], the “effect on the pH of the reactions” value is “none”.

`CC1=CC(=O)c2ccccc2C1=O` [Compound 118, 2-methyl-1,4-naphthoquinone]: the “effect on the pH of the reactions” value was “none”.

As for `Cl.Nc1ccc(O)c2ccccc12` [Compound 121, 4-amino-1-naphthol hydrochloride], the “effect on the pH of the reactions” value is recorded as “none”.

As for `O=C1C=C(Br)C(=O)c2ccccc21` [Compound 135, 2-bromo-1,4-naphthoquinone], the “effect on the pH of the reactions” value was “none”.
